# Measured values from patent US20090022803A1, “Oral Formulations For Delivery of Catecholic Butanes Including Ndga Compounds” (priority 2005, published 2009).
# Like-named read-outs stand apart in the source and are kept apart here. This continues a long series; more values of the same kind are listed elsewhere.
# Assay type: physicochemical
# Procedure: A 10 mL solution of M4N at a concentration of about 10 mg/mL in 40% BP-β-CD was made as follows. About 10 mL of the 40% HP-β-CD solution were added to a glass beaker containing a stir bar. The beaker was placed on a magnetic plate and the stir bar was set to stir at medium speed. About […] of M4N were slowly added to the 40% HP-β-CD in the center of the beaker with the aid of a spatula. The M4N/40% HP-β-CD mixture was stirred for 2 hr or until all M4N was uniformly suspended without any clumps being present. The M4N/40% HP-β-CD mixture was optionally heated at 80° C. for about 30 min. (or longer if a larger volume of solution was desired, for example, 1 hr at 80° C. for 100 mL of the M4N/HP-β-CD mixture), or longer as needed to ensure complete dissolution of M4N. […] The final M4N/40% HP-β-CD solution was stored at room temperature and was kept protected from light. This process may be scaled up or down to obtain the requisite volume or concentration of M4N. Formulations containing M4N in other cyclodextrin solutions may be similarly made, such as, for example, by substituting HP-β-CD in the process described above with other cyclodextrins. […]
# A 10 mL solution of M4N at a concentration of about 10 mg/mL in 50% HP-β-CD/0.5% HPMC was made as follows. About 10 mL of the 50% HP-β-CD/0.5% HPMC solution were added to a glass beaker containing a stir bar. The beaker was placed on a magnetic plate and the stir bar was set to stir at medium speed. About 100 mg of M4N were slowly added to the 50% HP-β-CD/0.5% HPMC in the center of the beaker with the aid of a spatula. The M4N/50% HP-β-CD/0.5% HPMC mixture was stirred for 24 hr or until all M4N was uniformly suspended without any clumps being present. The M4N/50% HP-β-CD/0.5% HPMC mixture was heated at about 90° C. for about 30 min. (or longer if a larger volume of solution was desired, for example, 1 hr at 90° C. for 500 mL of the M4N/50% HP-β-CD/0.5% HPMC mixture), or longer as needed to ensure complete dissolution of M4N. […] The final M4N/50% HP-β-CD/0.5% HPMC solution was stored at room temperature and was kept protected from light.
# A 10 mL solution of M4N at a concentration of about 20 mg/mL in 5% EC (w/v) (the “EC formulation”) was made as follows. About 10 mL of 5% EC formulation, made as described above, were added to a glass beaker containing a stir bar. The beaker was placed on a magnetic plate and the stir bar was set to stir at medium speed, and covered with a round Teflon® cover. About 200 mg of M4N were slowly added to the 5% EC formulation in the center of the beaker with the aid of a spatula to prevent M4N from sticking to the beaker wall. The M4N/EC mixture was stirred for 2 hr or until all M4N had dissolved or was uniformly suspended without any clumps being present. The M4N/EC mixture was heated at about 60° C. for about 30 min. (or longer if a larger volume of solution was desired, for example, 1 hr at 60° C. for 500 mL of the M4N/EC mixture), or longer as needed to ensure complete dissolution of M4N. […] The final M4N/EC solution was stored at room temperature and was kept protected from light.
# A 10 mL solution of M4N at a concentration of about 50 mg/mL in sesame oil was made as follows. About 10 mL of sesame oil were added to a glass beaker containing a stir bar. The beaker was placed on a magnetic plate and the stir bar was set to stir at medium speed. About 500 mg of M4N were slowly added to the sesame oil in the center of the beaker with the aid of a spatula to prevent M4N from sticking to the beaker wall. The M4N/sesame oil mixture was stirred for about 2 hr or until all M4N had dissolved or was uniformly suspended without any clump being present. The M4N/sesame oil mixture was heated at about 60° C. for about 30 min. (or longer if a larger volume of solution was desired, for example, 1 hr at 60° C. for 500 mL of the M4N/sesame oil mixture), or longer as need to ensure complete dissolution of M4N. […]
smiles,measurement,setting,value
"COc1ccc(C[C@@H](C)[C@@H](C)Cc2ccc(OC)c(OC)c2)cc1OC [Formulation M4N, meso-1,4-bis(3,4-dimethoxyphenyl)-2,3-dimethylbutane]",Dissolution After Heating,"M4N 1 mg/mL in Corn Oil, 60° C.",Y at 60 °C
same,Dissolution After Rotation,M4N 1 mg/mL in Peppermint Oil,Y
same,Dissolution After Rotation,"M4N 2.4 mg/mL, Sesame Oil, Tween ® 20 and Glycerol, 10% Oil emulsion in 90% saline",Y
same,Dissolution After Rotation,"M4N 2.9 mg/mL, Sesame Oil and Tween ® 20, 10% Oil emulsion in 90% saline",Y
same,Dissolution After Rotation,M4N 10 mg/mL in 1% CMC (High Viscosity),N
same,Dissolution After Heating,"M4N 10 mg/mL in 1% CMC (High Viscosity), 90° C.",N at 90 °C
same,Dissolution After Rotation,M4N 10 mg/mL in 1% CMC (Low Viscosity),suspension
same,Dissolution After Rotation,M4N 10 mg/mL in 2% MC (Low viscosity),N
same,Dissolution After Heating,"M4N 10 mg/mL in 2% MC (Low viscosity), 90° C.",N at 90 °C
same,Dissolution After Rotation,M4N 10 mg/mL in 4% CMC (Low Viscosity),N
same,Dissolution After Heating,"M4N 10 mg/mL in 4% CMC (Low Viscosity), 90° C.",N at 90 °C
same,Dissolution After Heating,"M4N 10 mg/mL in 5% EC in EtOH, 40° C.",Y at 40 °C
same,Dissolution After Heating,"M4N 10 mg/mL in 50% HP-β-CD, 0.5% HPMC, 90° C.",Y at 90 °C
same,Dissolution After Rotation,M4N 10 mg/mL in Corn Oil,N
same,Dissolution After Heating,"M4N 10 mg/mL in Corn Oil, 60° C.",Y at 60 °C
same,Dissolution After Rotation,M4N 10 mg/mL in Mineral Oil,N
same,Dissolution After Heating,"M4N 10 mg/mL in Mineral Oil, 60° C.",Y at 60 °C
same,Dissolution After Rotation,M4N 10 mg/mL in Peppermint Oil,Y
same,Dissolution After Rotation,M4N 10 mg/mL in Sesame Oil,Y
same,Dissolution After Rotation,M4N 10 mg/mL in Soybean Oil,N
same,Dissolution After Heating,"M4N 10 mg/mL in Soybean Oil, 60° C.",Y at 60 °C
same,Dissolution After Rotation,M4N 20 mg/mL in 1% CMC (Low Viscosity),suspension
same,Dissolution After Heating,"M4N 20 mg/mL in 5% EC in EtOH, 60° C.",Y at 60 °C
same,Dissolution After Rotation,"M4N 20 mg/mL in 50% Peppermint Oil, 50% Sesame Oil",Y
same,Dissolution After Rotation,M4N 20 mg/mL in Corn Oil,N
same,Dissolution After Heating,"M4N 20 mg/mL in Corn Oil, 60° C.",Y at 60 °C
same,Dissolution After Rotation,M4N 20 mg/mL in Peppermint Oil,Y
same,Dissolution After Rotation,M4N 20 mg/mL in Sesame Oil,N
same,Dissolution After Heating,"M4N 20 mg/mL in Sesame Oil, 60° C.",Y at 60 °C
same,Dissolution After Rotation,"M4N 24.3 mg/mL in 75% Sesame Oil, 9% Tween ® 20, 16% Glycerol",N
same,Dissolution After Heating,"M4N 24.3 mg/mL in 75% Sesame Oil, 9% Tween ® 20, 16% Glycerol, 60° C.",Y at 60 °C
same,Dissolution After Rotation,"M4N 29 mg/mL in 89% Sesame Oil, 11% Tween ® 20",N
same,Dissolution After Heating,"M4N 29 mg/mL in 89% Sesame Oil, 11% Tween ® 20, 60° C.",Y at 60 °C
same,Dissolution After Heating,"M4N 30 mg/mL in 5% EC in EtOH, 60° C.",Y at 60 °C
same,Dissolution After Rotation,M4N 30 mg/mL in Olive Oil,N
same,Dissolution After Heating,"M4N 30 mg/mL in Olive Oil, 60° C.",Y at 60 °C
same,Dissolution After Rotation,M4N 30 mg/mL in Sesame Oil,N
same,Dissolution After Heating,"M4N 30 mg/mL in Sesame Oil, 60° C.",Y at 60 °C
same,Dissolution After Rotation,M4N 30 mg/mL in Soybean Oil,N
same,Dissolution After Heating,"M4N 30 mg/mL in Soybean Oil, 60° C.",Y at 60 °C
same,Dissolution After Rotation,"M4N 40 mg/mL in 50% Peppermint Oil, 50% PEG 300",N
same,Dissolution After Heating,"M4N 40 mg/mL in 50% Peppermint Oil, 50% PEG 300, 35° C.",Y at 35 °C
same,Dissolution After Rotation,"M4N 40 mg/mL in 50% Peppermint Oil, 50% PEG 400",N
same,Dissolution After Heating,"M4N 40 mg/mL in 50% Peppermint Oil, 50% PEG 400, 40° C.",Y at 40 °C
same,Dissolution After Rotation,"M4N 40 mg/mL in 50% Peppermint Oil, 50% Sesame Oil",N
same,Dissolution After Heating,"M4N 40 mg/mL in 50% Peppermint Oil, 50% Sesame Oil, 40° C.",Y at 40 °C
same,Dissolution After Rotation,"M4N 40 mg/mL in 50% Peppermint Oil, 50% Tween ® 20",N
same,Dissolution After Heating,"M4N 40 mg/mL in 50% Peppermint Oil, 50% Tween ® 20, 40° C.",Y at 40 °C
same,Dissolution After Rotation,"M4N 40 mg/mL in 85% Sesame Oil, 15% Tween ® 20",N
same,Dissolution After Heating,"M4N 40 mg/mL in 85% Sesame Oil, 15% Tween ® 20, 45° C.",Y at 45 °C
same,Dissolution After Rotation,M4N 40 mg/mL in Corn Oil,N
same,Dissolution After Heating,"M4N 40 mg/mL in Corn Oil, 60° C.",Y at 60 °C
same,Dissolution After Rotation,M4N 40 mg/mL in Peppermint Oil,N
same,Dissolution After Heating,"M4N 40 mg/mL in Peppermint Oil, 40° C.",Y at 40 °C
same,Dissolution After Heating,"M4N 50 mg/mL in 2.3% HPMC, 90° C.",N at 90 °C
same,Dissolution After Heating,"M4N 50 mg/mL in 5% EC in EtOH, 90° C.",Y at 90 °C
same,Dissolution After Heating,"M4N 50 mg/mL in 50% HP-β-CD, 0.5% HPMC, 90° C.",N at 90 °C
same,Dissolution After Rotation,M4N 50 mg/mL in Camillia Oil,N
same,Dissolution After Heating,"M4N 50 mg/mL in Camillia Oil, 60° C.",Y at 60 °C
same,Dissolution After Rotation,M4N 50 mg/mL in Corn Oil,N
same,Dissolution After Heating,"M4N 50 mg/mL in Corn Oil, 60° C.",Y at 60 °C
same,Dissolution After Rotation,M4N 50 mg/mL in Mineral Oil,N
same,Dissolution After Heating,"M4N 50 mg/mL in Mineral Oil, 60° C.",Y at 60 °C
same,Dissolution After Rotation,M4N 50 mg/mL in Sesame Oil,N
same,Dissolution After Heating,"M4N 50 mg/mL in Sesame Oil, 60° C.",Y at 60 °C
same,Dissolution After Rotation,M4N 50 mg/mL in Soybean Oil,N
same,Dissolution After Heating,"M4N 50 mg/mL in Soybean Oil, 60° C.",Y at 60 °C
same,Dissolution After Rotation,"M4N 52 mg/mL in 40% Peppermint Oil, 40% PEG 400, 20% Glycerol",N
same,Dissolution After Heating,"M4N 52 mg/mL in 40% Peppermint Oil, 40% PEG 400, 20% Glycerol, 40° C.",Y at 40 °C
same,Dissolution After Rotation,"M4N 59 mg/mL in 45% Peppermint Oil, 45% PEG 400, 10% Glycerol",N
same,Dissolution After Heating,"M4N 59 mg/mL in 45% Peppermint Oil, 45% PEG 400, 10% Glycerol, 40° C.",Y at 40 °C
same,Dissolution After Rotation,"M4N 60 mg/mL in 0.4% (v/v) Cinnamaldehyde, 5% (w/v) Beeswax, 94.5% (v/v) Olive Oil",N
same,Dissolution After Heating,"M4N 60 mg/mL in 0.4% (v/v) Cinnamaldehyde, 5% (w/v) Beeswax, 94.5% (v/v) Olive Oil, 50° C.",Y at 50 °C
same,Dissolution After Rotation,"M4N 60 mg/mL in 33% Peppermint Oil, 33% Tween ® 20, 33% PEG 400",N
same,Dissolution After Heating,"M4N 60 mg/mL in 33% Peppermint Oil, 33% Tween ® 20, 33% PEG 400, 40° C.",Y at 40 °C
same,Dissolution After Rotation,"M4N 60 mg/mL in 50% Peppermint Oil, 50% PEG 300",N
same,Dissolution After Heating,"M4N 60 mg/mL in 50% Peppermint Oil, 50% PEG 300, 35° C.",Y at 35 °C
same,Dissolution After Rotation,"M4N 60 mg/mL in 50% Peppermint Oil, 50% PEG 400",N
same,Dissolution After Heating,"M4N 60 mg/mL in 50% Peppermint Oil, 50% PEG 400, 40° C.",Y at 40 °C
same,Dissolution After Rotation,"M4N 60 mg/mL in 50% Peppermint Oil, 50% Sesame Oil",N
same,Dissolution After Heating,"M4N 60 mg/mL in 50% Peppermint Oil, 50% Sesame Oil, 40° C.",Y at 40 °C
same,Dissolution After Rotation,"M4N 60 mg/mL in 50% Peppermint Oil, 50% Tween ® 20",N
same,Dissolution After Heating,"M4N 60 mg/mL in 50% Peppermint Oil, 50% Tween ® 20, 40° C.",Y at 40 °C
same,Dissolution After Rotation,"M4N 60 mg/mL in 60% Peppermint Oil, 40% PEG 300",N
same,Dissolution After Heating,"M4N 60 mg/mL in 60% Peppermint Oil, 40% PEG 300, 40° C.",Y at 40 °C
same,Dissolution After Rotation,"M4N 60 mg/mL in 60% Peppermint Oil, 40% PEG 400",N
same,Dissolution After Heating,"M4N 60 mg/mL in 60% Peppermint Oil, 40% PEG 400, 40° C.",Y at 40 °C
same,Dissolution After Rotation,"M4N 60 mg/mL in 80% Olive Oil, 20% Soybean Oil",N
same,Dissolution After Heating,"M4N 60 mg/mL in 80% Olive Oil, 20% Soybean Oil, 70° C.",Y at 70 °C
same,Dissolution After Rotation,"M4N 60 mg/mL in 85% Sesame Oil, 15% Tween ® 20",N
same,Dissolution After Heating,"M4N 60 mg/mL in 85% Sesame Oil, 15% Tween ® 20, 55° C.",Y at 55 °C
